Drawing on PMC11267308, this text covers binding for two substances.

The chains behind the UniProt entries cited, without tags or fusion partners.
UniProt P15311: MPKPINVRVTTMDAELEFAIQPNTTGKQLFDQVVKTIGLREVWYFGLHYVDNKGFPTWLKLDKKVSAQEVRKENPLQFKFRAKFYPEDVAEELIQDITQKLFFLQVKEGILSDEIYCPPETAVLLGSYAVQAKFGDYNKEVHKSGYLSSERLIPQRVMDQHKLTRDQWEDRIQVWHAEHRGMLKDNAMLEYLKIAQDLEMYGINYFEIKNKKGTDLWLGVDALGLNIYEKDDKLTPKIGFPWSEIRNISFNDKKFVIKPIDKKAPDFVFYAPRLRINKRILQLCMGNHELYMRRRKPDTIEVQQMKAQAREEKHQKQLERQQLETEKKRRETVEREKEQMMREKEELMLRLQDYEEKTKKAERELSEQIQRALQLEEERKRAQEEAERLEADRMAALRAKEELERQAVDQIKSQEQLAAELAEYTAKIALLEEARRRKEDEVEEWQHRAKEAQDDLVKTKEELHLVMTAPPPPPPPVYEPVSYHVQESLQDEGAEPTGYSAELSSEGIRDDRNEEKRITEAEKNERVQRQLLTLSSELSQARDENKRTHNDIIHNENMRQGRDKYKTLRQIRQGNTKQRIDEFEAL
UniProt P51617: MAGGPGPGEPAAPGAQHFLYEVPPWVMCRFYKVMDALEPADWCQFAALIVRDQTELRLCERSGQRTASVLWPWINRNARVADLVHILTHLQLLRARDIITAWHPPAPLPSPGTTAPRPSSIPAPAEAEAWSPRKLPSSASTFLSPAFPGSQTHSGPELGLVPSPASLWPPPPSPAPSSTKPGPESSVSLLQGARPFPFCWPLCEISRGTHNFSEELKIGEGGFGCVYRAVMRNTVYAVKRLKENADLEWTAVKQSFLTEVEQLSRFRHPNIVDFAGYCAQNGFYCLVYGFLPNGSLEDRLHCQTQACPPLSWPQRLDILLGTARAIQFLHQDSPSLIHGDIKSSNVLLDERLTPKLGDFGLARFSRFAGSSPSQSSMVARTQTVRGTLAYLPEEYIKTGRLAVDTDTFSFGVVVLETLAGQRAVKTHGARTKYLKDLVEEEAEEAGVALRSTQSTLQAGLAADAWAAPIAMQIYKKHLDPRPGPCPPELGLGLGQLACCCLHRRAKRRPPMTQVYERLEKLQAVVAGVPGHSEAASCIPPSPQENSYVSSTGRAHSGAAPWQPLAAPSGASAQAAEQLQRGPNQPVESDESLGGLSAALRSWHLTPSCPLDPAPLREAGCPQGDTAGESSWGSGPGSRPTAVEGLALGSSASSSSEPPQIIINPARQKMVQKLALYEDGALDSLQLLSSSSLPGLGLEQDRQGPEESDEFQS
UniProt Q99836: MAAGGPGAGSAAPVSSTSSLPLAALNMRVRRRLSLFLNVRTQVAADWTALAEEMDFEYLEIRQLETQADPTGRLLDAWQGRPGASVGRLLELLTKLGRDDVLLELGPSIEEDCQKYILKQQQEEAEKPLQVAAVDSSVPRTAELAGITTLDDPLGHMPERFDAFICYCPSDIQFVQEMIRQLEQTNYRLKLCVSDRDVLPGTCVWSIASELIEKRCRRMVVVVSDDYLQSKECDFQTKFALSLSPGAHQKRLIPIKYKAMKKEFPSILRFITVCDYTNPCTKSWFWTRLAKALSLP

The assay addresses Ezrin (human (endogenous in HK-2)) (UniProt P15311). Description: co-IP; HK-2 cell lysate (IP lysis buffer with protease and phosphatase inhibitors); 2 µg antibody against the target protein overnight at 4 °C, Agarose A+G, washed thrice with PBS; cells in the presence or absence of LPS (10 µg/mL); IgG control.

These are yes or no findings as the source states them, for the method shown. Binding seen in cells or lysates may run through a third protein. Some results given as binding are weak or reduced against the parent protein; the word gives no strength.

In the case of “IL-1R-associated kinase 1 (IRAK-1) (from UniProt P51617 1-712)”, the binding entry is on record as “binds”.
Turning to “myeloid differentiation factor 88 (MyD88) (from UniProt Q99836 1-296)”, the binding entry is given as “binds”.
